Results are given in words; binding and its absence hold for the method and conditions named. In cells and extracts the contact can be indirect. Some results given as binding are weak or reduced against the parent protein; the word gives no strength. For some assays here: Sequences can lack the tags named with a protein.
Legend:
HA-vinculin = biological target: T1, HA-vinculin (UniProt Q64727); experiment: co-IP; MLO-Y4 cells with and without overexpression of HA-vinculin and Flag-Mef2c, lysed in RIPA buffer at 4 °C; supernatant incubated with primary antibody or IgG overnight, then Protein A/G Magnetic Beads 1 h at room temperature; washed three times with IP buffer; SDS-PAGE and western blotting
T1 sequence: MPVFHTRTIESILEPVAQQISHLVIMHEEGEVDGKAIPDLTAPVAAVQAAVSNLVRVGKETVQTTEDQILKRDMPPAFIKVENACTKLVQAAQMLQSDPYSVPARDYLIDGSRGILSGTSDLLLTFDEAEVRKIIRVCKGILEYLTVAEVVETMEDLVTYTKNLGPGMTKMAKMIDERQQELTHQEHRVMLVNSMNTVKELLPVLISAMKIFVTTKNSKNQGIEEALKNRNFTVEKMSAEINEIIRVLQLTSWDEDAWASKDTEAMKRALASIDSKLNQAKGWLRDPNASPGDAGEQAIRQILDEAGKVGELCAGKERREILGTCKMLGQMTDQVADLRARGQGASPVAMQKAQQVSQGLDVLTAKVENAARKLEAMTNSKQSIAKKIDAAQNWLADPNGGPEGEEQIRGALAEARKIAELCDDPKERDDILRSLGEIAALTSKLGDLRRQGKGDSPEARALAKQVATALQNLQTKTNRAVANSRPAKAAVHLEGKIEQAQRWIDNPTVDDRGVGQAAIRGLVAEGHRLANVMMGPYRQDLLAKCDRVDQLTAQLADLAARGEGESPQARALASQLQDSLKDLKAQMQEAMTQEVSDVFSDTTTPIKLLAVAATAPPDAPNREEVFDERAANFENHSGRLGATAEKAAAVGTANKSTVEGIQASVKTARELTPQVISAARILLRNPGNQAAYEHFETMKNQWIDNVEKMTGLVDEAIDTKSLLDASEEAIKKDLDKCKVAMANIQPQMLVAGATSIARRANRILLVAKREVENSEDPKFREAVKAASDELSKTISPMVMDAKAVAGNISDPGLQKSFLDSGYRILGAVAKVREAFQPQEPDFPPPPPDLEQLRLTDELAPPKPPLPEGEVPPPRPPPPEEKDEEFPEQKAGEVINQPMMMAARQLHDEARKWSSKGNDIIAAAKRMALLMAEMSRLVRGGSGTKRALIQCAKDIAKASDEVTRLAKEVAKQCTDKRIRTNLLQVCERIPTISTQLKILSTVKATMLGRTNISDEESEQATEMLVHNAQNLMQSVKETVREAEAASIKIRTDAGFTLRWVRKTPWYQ

By UniProt entry, the sequences of proteins in these tests, tags left out.
UniProt Q8CFN5: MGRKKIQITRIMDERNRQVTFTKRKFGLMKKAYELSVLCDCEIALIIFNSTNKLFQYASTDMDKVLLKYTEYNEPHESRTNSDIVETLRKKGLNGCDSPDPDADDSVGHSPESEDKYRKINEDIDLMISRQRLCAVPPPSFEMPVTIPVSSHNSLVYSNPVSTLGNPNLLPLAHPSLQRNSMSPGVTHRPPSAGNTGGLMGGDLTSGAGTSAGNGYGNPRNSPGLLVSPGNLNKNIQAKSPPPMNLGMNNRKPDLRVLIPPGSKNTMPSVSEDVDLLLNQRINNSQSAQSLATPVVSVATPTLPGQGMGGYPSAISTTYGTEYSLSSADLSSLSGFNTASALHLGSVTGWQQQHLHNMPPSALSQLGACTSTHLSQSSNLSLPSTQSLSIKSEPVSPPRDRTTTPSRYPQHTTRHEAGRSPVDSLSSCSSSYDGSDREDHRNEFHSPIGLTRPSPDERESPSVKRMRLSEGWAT

[1] = biological target: T2, vinculin (mouse (endogenous in MLO-Y4)) (UniProt Q64727); experiment: as above
T2 sequence: T1 sequence

Row | binding (HA-vinculin) | binding [1] | Substance
1 | binds |  | Flag-Mef2c (from UniProt Q8CFN5 1-474)
2 |  | binds | Mef2c (from UniProt Q8CFN5 1-474)
